PubChem BioAssay AID1259297 | Sanger Institute | 2017
Shown is an unselected part of 794 reagents. 13 of them (1.6%) were called active. 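Calls reflect knock-down without drug only; drug synergy is judged separately, with scores above 0.15 counted as synergy.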 Not all columns of the deposit are shown. No sequences are given here. The record does not give: the amount of reagent, the time to read-out.

Aim: 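siRNA screen across the kinome seeking drug partners in cells of colorectal cancer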 (primary screen)
Cells: human RCM1 colorectal cancer cell line
Knock-down reagent: siRNA pool against human genes
Challenge: separate arms: DMSO vehicle, or one anchor drug at a mild dose: BYL719 1 µM, cetuximab 5 µg/ml, trametinib 10 nM
Read-out: 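Viability per well relative to a non-targeting pool, mean of replicates; robust z-score for knock-down alone; synergy score with BYL719, cetuximab or trametinib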
Scale: viability z-score, knock-down alone: higher = more viable cells than non-targeting controls
Hit rule: 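Called essential if knock-down without drug gives a viability robust z-score under -3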
Calls: active = essential when knocked down alone; inactive = no clear loss of viability alone

| gene | viability z-score, knock-down alone | activity call |
| --- | --- | --- |
| SCYL3 (SCY1 like pseudokinase 3) | -0.458 | inactive |
| CDK2 (cyclin dependent kinase 2) | 0.9 | inactive |
| IGF2R (insulin like growth factor 2 receptor) | 0.9 | inactive |
| TJP2 (tight junction protein 2) | -0.52 | inactive |
| PFKFB2 (6-phosphofructo-2-kinase/fructose-2,6-biphosphatase 2) | 0.394 | inactive |
| STK36 (serine/threonine kinase 36) | 0.233 | inactive |
| EPHB4 (EPH receptor B4) | 0.517 | inactive |
| ALDH18A1 (aldehyde dehydrogenase 18 family member A1) | -0.222 | inactive |
| DCLK3 (doublecortin like kinase 3) | -0.233 | inactive |
| EPHA6 (EPH receptor A6) | -1.94 | inactive |
| EPHB6 (EPH receptor B6) | 0.9 | inactive |
| FER (FER tyrosine kinase) | -0.0188 | inactive |
| NRBP2 (nuclear receptor binding protein 2) | -0.931 | inactive |
| PTK6 (protein tyrosine kinase 6) | 0.533 | inactive |
| MYLK4 (myosin light chain kinase family member 4) | 0.0662 | inactive |
| CNOT1 (CCR4-NOT transcription complex subunit 1) | -0.876 | inactive |
| ROR2 (ROR family WNT receptor 2) | 0.9 | inactive |
| MAP3K15 (mitogen-activated protein kinase kinase kinase 15) | 0.0689 | inactive |
| PRKD1 (protein kinase D1) | 0.0151 | inactive |
| DGKG (diacylglycerol kinase gamma) | 0.861 | inactive |
| FASTK (Fas activated serine/threonine kinase) | 0.303 | inactive |
| TRIB3 (tribbles pseudokinase 3) | -0.401 | inactive |
| TEK (TEK receptor tyrosine kinase) | 0.0358 | inactive |
| SRP72 (signal recognition particle 72) | -1.61 | inactive |
| SMAD2 (SMAD family member 2) | -2.64 | inactive |
| VRK3 (VRK serine/threonine kinase 3) | 0.382 | inactive |
| STK16 (serine/threonine kinase 16) | -0.136 | inactive |
| RIOK2 (RIO kinase 2) | -0.267 | inactive |
| APC (APC regulator of Wnt signaling pathway) | -0.14 | inactive |
| TRIM27 (tripartite motif containing 27) | 0.9 | inactive |

Continued, starting with the last 4 of the part before.
| gene | viability z-score, knock-down alone | activity call |
| --- | --- | --- |
| STK16 (serine/threonine kinase 16) | -0.136 | inactive |
| RIOK2 (RIO kinase 2) | -0.267 | inactive |
| APC (APC regulator of Wnt signaling pathway) | -0.14 | inactive |
| TRIM27 (tripartite motif containing 27) | 0.9 | inactive |
| RNASEL (ribonuclease L) | 0.417 | inactive |
| AK5 (adenylate kinase 5) | 0.592 | inactive |
| PEAK1 (pseudopodium enriched atypical kinase 1) | -0.166 | inactive |
| STK39 (serine/threonine kinase 39) | -3.3 | active |
| CHUK | -0.00144 | inactive |
| DAPK1 (death associated protein kinase 1) | -1.71 | inactive |
| PHKA2 (phosphorylase kinase regulatory subunit alpha 2) | -1.39 | inactive |
| NME6 (NME/NM23 nucleoside diphosphate kinase 6) | -2.7 | inactive |
| MAP4K2 (mitogen-activated protein kinase kinase kinase kinase 2) | -0.652 | inactive |
| PIK3CA | 0.369 | inactive |
| LMTK1 (lemur tail kinase 1) | -1.38 | inactive |
| MAP3K8 (mitogen-activated protein kinase kinase kinase 8) | -1.4 | inactive |
| PIP4K2C (phosphatidylinositol-5-phosphate 4-kinase type 2 gamma) | -0.695 | inactive |
| PAPSS1 (3'-phosphoadenosine 5'-phosphosulfate synthase 1) | 0.781 | inactive |
| SPHK2 (sphingosine kinase 2) | -0.0817 | inactive |
| NF1 (neurofibromin 1) | -1.15 | inactive |
| RIPK1 (receptor interacting serine/threonine kinase 1) | -0.0584 | inactive |
| GRK6 (G protein-coupled receptor kinase 6) | -0.556 | inactive |
| CSNK1G3 (casein kinase 1 gamma 3) | 0.9 | inactive |
| DGKK (diacylglycerol kinase kappa) | 0.556 | inactive |
| STRADB (STE20 related adaptor beta) | -0.906 | inactive |
| CHEK2 (checkpoint kinase 2) | -0.108 | inactive |
| ACVR1B (activin A receptor type 1B) | 0.9 | inactive |
| MAGI1 | -0.816 | inactive |
| PGK1 (phosphoglycerate kinase 1) | 0.317 | inactive |
| ULK2 (unc-51 like autophagy activating kinase 2) | -0.407 | inactive |
| GATA3 (GATA binding protein 3) | 0.386 | inactive |
| TESK2 (testis associated actin remodelling kinase 2) | 0.9 | inactive |
| DLG2 (discs large MAGUK scaffold protein 2) | 0.9 | inactive |
| STKLD1 (serine/threonine kinase like domain containing 1) | -0.5 | inactive |
| CDKN2C (cyclin dependent kinase inhibitor 2C) | 0.9 | inactive |
| POLR2B (RNA polymerase II subunit B) | -3.57 | active |
| TP53RK (TP53 regulating kinase) | 0.171 | inactive |
